# Test results from the supplement of paper PMC10849652.
# The chains behind the UniProt entries cited, without tags or fusion partners. Where a name states a change or a piece, a line headed by the entry shows the natural chain unless it says otherwise.
# UniProt Q7LBR1: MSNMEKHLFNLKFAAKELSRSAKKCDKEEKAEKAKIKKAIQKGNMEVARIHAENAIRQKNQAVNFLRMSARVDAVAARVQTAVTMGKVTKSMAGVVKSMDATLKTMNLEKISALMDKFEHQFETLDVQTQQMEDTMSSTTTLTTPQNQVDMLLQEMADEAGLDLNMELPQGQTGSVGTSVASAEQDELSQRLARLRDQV
# UniProt Q8N2Z9: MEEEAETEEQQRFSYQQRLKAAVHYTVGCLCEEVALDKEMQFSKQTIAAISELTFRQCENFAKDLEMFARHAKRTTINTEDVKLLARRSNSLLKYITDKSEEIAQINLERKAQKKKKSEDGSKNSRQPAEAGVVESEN
# UniProt Q9Y259: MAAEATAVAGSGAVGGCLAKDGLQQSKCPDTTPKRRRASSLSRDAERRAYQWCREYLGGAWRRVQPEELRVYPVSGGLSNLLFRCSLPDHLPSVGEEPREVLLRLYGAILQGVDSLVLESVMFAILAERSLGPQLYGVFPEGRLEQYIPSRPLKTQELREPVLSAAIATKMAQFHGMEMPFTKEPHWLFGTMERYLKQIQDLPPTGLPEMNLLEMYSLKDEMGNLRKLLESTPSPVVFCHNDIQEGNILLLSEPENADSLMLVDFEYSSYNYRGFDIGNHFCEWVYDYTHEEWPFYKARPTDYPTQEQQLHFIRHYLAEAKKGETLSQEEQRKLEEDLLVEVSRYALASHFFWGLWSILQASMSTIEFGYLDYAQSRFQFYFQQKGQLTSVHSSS
# UniProt Q8TEP8: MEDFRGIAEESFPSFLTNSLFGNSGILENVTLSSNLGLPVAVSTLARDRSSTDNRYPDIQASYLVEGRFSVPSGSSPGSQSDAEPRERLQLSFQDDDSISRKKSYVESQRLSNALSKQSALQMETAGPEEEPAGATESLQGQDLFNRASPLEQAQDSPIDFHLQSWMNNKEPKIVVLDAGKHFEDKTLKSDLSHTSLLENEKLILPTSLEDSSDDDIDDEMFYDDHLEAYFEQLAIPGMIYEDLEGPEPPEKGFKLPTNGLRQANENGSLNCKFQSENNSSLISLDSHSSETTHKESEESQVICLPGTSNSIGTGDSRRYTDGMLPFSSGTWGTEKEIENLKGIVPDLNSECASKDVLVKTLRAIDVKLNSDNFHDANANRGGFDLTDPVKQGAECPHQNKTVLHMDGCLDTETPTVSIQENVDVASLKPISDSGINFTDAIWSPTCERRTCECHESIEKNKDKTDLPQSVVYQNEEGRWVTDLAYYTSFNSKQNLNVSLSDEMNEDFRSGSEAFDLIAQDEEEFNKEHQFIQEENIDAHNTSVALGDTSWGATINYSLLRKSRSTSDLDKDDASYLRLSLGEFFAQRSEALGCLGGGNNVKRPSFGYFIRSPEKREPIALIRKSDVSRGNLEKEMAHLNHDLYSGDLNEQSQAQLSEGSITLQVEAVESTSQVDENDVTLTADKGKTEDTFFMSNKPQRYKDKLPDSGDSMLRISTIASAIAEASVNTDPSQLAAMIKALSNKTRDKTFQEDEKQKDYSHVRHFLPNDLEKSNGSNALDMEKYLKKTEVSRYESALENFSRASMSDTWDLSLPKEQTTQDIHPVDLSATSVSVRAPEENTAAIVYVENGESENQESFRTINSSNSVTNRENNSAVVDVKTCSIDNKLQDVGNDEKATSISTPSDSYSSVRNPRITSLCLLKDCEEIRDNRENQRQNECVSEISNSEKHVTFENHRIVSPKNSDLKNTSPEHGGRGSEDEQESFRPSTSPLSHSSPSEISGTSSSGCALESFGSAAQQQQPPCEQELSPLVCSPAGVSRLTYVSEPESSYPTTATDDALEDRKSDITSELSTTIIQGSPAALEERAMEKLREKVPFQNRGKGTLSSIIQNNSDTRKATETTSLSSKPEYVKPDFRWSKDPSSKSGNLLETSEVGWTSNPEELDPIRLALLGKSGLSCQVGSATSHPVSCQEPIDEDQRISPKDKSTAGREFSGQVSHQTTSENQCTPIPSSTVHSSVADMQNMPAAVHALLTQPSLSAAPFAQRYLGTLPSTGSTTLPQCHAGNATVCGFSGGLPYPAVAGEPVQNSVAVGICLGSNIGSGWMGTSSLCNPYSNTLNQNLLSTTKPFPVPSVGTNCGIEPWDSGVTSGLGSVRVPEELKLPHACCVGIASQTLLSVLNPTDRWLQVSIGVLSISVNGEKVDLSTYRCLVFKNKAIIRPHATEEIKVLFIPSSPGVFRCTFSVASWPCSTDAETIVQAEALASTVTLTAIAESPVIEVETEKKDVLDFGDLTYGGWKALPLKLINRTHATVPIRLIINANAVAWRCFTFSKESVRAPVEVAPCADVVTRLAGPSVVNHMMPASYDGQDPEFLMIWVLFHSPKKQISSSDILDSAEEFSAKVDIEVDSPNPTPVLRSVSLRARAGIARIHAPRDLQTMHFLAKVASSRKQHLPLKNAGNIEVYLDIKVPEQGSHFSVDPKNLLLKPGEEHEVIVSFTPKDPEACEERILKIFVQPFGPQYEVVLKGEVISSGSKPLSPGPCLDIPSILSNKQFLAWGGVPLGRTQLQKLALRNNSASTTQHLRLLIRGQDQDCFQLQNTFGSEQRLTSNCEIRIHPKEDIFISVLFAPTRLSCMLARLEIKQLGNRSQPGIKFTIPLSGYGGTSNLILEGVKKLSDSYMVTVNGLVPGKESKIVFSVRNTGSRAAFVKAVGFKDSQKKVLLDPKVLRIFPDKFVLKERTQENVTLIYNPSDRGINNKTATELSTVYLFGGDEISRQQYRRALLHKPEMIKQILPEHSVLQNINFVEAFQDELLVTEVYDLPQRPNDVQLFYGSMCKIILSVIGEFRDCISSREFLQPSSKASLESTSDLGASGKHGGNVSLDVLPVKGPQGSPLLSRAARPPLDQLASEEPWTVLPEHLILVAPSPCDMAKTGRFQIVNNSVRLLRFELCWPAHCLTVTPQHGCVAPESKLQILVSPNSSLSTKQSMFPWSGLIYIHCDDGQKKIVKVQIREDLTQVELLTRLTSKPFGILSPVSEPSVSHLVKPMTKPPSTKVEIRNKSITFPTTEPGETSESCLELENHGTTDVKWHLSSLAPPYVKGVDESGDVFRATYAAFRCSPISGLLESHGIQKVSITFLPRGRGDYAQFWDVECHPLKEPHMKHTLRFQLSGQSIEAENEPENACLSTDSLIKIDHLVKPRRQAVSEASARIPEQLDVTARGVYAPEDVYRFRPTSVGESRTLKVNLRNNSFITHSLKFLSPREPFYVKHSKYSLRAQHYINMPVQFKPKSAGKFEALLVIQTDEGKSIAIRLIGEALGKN
# UniProt Q14004, whole entry, looked up: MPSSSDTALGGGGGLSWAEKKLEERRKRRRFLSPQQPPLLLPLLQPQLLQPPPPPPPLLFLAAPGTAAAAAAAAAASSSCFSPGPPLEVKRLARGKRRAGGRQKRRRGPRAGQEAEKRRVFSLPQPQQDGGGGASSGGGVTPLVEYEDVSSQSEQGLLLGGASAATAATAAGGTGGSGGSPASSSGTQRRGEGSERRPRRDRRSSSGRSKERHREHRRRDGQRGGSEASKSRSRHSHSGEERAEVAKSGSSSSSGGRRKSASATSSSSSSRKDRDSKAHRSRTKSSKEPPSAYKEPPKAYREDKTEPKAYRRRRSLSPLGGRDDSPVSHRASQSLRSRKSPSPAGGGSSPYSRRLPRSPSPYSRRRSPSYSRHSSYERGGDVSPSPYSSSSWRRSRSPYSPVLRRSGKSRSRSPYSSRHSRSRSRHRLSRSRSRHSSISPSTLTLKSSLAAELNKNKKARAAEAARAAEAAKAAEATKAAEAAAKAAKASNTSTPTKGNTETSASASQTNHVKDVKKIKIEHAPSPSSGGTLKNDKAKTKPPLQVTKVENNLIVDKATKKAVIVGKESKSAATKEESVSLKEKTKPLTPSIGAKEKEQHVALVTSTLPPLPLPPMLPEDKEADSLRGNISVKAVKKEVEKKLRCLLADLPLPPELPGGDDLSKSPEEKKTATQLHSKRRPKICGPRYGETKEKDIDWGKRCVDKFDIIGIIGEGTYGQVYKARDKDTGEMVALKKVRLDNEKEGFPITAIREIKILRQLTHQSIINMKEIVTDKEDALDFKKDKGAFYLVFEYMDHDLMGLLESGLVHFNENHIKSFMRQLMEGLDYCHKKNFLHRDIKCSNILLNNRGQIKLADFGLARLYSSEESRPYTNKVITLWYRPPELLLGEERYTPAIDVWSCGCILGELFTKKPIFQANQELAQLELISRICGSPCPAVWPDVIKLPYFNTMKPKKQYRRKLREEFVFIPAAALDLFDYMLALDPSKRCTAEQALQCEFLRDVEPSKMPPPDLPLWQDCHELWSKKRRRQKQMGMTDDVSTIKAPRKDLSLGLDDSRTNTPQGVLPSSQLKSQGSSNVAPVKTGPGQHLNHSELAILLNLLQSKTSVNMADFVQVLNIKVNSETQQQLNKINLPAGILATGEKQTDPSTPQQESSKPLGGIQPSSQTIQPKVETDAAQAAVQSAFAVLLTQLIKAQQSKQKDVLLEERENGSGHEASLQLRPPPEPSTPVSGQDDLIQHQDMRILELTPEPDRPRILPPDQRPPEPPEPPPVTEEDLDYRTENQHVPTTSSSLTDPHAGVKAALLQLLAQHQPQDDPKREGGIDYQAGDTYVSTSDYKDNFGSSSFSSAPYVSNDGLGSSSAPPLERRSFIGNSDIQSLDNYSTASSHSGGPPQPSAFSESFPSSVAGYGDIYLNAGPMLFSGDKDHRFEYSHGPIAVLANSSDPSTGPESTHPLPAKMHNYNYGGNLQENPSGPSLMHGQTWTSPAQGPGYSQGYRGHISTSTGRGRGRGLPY
# UniProt Q00587: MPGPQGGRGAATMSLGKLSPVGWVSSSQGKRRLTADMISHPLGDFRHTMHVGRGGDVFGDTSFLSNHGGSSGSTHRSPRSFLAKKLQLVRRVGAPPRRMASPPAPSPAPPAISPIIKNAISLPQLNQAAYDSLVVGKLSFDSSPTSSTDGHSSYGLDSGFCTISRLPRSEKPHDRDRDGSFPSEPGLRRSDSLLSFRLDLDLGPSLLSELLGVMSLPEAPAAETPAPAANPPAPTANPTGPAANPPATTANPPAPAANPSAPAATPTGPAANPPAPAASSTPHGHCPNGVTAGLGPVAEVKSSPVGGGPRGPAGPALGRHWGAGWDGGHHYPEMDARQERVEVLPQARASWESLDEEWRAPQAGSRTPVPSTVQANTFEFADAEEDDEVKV
# UniProt Q96SZ6: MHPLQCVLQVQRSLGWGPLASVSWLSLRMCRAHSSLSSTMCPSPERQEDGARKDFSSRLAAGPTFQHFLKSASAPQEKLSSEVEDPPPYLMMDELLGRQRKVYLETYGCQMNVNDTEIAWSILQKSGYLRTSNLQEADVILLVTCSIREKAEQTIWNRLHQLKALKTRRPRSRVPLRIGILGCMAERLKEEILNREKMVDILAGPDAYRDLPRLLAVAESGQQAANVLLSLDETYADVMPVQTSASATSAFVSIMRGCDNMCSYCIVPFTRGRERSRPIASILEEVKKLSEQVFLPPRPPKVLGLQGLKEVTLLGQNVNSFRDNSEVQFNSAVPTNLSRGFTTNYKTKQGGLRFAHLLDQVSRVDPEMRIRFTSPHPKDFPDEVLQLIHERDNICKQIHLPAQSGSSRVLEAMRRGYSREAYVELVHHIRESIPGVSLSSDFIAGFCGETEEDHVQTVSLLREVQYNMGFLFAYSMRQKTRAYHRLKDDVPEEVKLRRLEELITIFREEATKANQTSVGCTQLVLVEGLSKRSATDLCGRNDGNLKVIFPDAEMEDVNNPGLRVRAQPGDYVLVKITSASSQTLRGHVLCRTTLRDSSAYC
# UniProt P42773: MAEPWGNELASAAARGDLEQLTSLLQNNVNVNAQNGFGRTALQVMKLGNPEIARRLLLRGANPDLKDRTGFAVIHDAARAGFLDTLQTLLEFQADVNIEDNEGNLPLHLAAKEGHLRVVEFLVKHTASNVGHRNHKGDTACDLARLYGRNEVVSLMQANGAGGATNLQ
# UniProt Q8N4Q1: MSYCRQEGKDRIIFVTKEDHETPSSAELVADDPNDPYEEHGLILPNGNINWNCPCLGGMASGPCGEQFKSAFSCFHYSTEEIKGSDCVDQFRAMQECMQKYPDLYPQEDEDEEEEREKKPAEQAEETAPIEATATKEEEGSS
# UniProt Q00534, whole entry, looked up: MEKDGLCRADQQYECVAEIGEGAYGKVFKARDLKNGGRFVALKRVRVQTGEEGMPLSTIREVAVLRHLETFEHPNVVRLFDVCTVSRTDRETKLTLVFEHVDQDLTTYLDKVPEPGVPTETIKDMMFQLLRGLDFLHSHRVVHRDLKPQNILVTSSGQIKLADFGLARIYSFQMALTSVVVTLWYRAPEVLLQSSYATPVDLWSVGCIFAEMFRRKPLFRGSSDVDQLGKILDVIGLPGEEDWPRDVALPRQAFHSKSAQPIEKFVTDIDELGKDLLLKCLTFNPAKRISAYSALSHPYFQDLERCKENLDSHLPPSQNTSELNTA
# UniProt P41208: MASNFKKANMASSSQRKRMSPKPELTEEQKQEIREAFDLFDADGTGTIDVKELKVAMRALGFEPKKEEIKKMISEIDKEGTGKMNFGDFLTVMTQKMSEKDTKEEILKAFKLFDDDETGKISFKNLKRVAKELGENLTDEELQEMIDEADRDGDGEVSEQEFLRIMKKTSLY
# Some of the results follow.
# Key:
# Test in all cases: log2 fold change, soluble protein after heating vs DMSO (PISA); higher = thermal stabilisation; K562 cells, 10 uM, 30 min; active = over 0.2 and 3.5 SD of the protein, either way, in both replicates (recomputed)
# [1] = compound: COC1=CC=C(C=C1)CN2C=CC3=C2C=C(C=C3)C(=O)NO
# In short: (§1)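 K562 cells at 2×10^6 cells/mL were treated with 10 μM compound for 30 min. Aliquots were heated for 3 min across 48°C-58°C, pooled, and extracted in PBS with 0.5% NP-40 at 4°C; soluble protein was the supernatant after 21,000xg for 90 min. Soluble protein was quantified by TMTpro 16plex LC-MS/MS with channel sums equalised, and reported as log2 fold change in thermal stability against DMSO controls, with values from duplicates.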
# [2] = compound: CON(C)C(=O)N1N=C(c2cc(F)ccc2F)S[C@@]1(CCCN)c1ccccc1 [filanesib]
# In short: as §1
# [3] = compound: CO[C@H]1C[C@@H]2CC[C@@H](C)[C@@](O)(O2)C(=O)C(=O)N2CCCC[C@H]2C(=O)O[C@H]([C@H](C)C[C@@H]2CC[C@H](n3cnnn3)[C@H](OC)C2)CC(=O)[C@H](C)/C=C(\C)[C@@H](O)[C@@H](OC)C(=O)[C@H](C)C[C@H](C)/C=C/C=C/C=C/1C [zotarolimus]
# In short: as §1
# [4] = compound: COc1cc(C(=O)O)ccc1NC(=O)[C@@H]1N[C@@H](CC(C)(C)C)[C@](C#N)(c2ccc(Cl)cc2F)[C@H]1c1cccc(Cl)c1F [idasanutlin]
# In short: as §1
# [5] = compound: COc1cc(Nc2ncc3c(n2)-c2ccc(Cl)cc2C(c2c(F)cccc2OC)=NC3)ccc1C(=O)O [alisertib]
# In short: as §1
# [6] = compound: COc1cc2nc(-c3cc(F)ccc3O)nc(N[C@@H]3CNC[C@H]3C(C)(C)O)c2cc1OC
# In short: as §1
# [7] = compound: COc1cc2ncnc(Nc3ccc(F)c(Cl)c3)c2cc1OCCCN1CCOCC1 [gefitinib]
# In short: as §1
# [8] = compound: COc1cccc2cc(-c3nc([C@H]4CC[C@H](C(=O)O)CC4)n4ncnc(N)c34)[nH]c12
# In short: as §1
# [9] = compound: CS(=O)(=O)CCNCc1ccc(-c2ccc3ncnc(Nc4ccc(OCc5cccc(F)c5)c(Cl)c4)c3c2)o1 [lapatinib]
# In short: as §1
# [10] = compound: CS(=O)(=O)N1CCN(Cc2cc3nc(-c4cccc5[nH]ncc45)nc(N4CCOCC4)c3s2)CC1 [pictilisib]
# In short: as §1
# [11] = compound: CS(=O)(=O)c1ccc(-c2cnc(N)c(C(=O)Nc3ccccc3)n2)cc1
# In short: as §1
# [12] = compound: C[C@@H](Oc1cc(-c2cnn(C3CCNCC3)c2)cnc1N)c1c(Cl)ccc(F)c1Cl [crizotinib]
# In short: as §1
# [13] = compound: C[C@@H]1COCCN1C2=NC(=NC(=C2)C3(CC3)S(=O)(=O)C)C4=C5C=CNC5=CC=C4
# In short: as §1
# [14] = compound: C[C@H](C1=CC=C(C=C1)C(=O)NC2=C3C=CNC3=NC=C2)N
# In short: as §1
# [15] = compound: C[C@H](Nc1ncnc2nc[nH]c12)c1cc2cccc(Cl)c2c(=O)n1-c1ccccc1 [duvelisib]
# In short: as §1
# [16] = compound: Cc1cc(Nc2cc(CN3CCOCC3)c3nc(C)c(Cc4ccc(Cl)cc4F)n3n2)n[nH]1 [gandotinib]
# In short: as §1
# [17] = compound: Cc1cc(Nc2cc(N3CCN(C)CC3)nc(Sc3ccc(NC(=O)C4CC4)cc3)n2)n[nH]1 [tozasertib]
# In short: as §1
# [18] = compound: Cc1cc(SCc2sc(-c3ccc(C(F)(F)F)cc3)nc2C)ccc1OCC(=O)O
# In short: as §1
# [19] = compound: Cc1ccc(-n2nc(C(C)(C)C)cc2NC(=O)Nc2ccc(OCCN3CCOCC3)c3ccccc23)cc1 [doramapimod]
# In short: as §1
# [20] = compound: Cc1ccc(C(=O)N(CCCN)[C@@H](c2nc3cc(Cl)ccc3c(=O)n2Cc2ccccc2)C(C)C)cc1 [ispinesib]
# In short: as §1
Target,log2 fold change [1],log2 fold change [2],log2 fold change [3],log2 fold change [4],log2 fold change [5],log2 fold change [6],log2 fold change [7],log2 fold change [8],log2 fold change [9],log2 fold change [10],log2 fold change [11],log2 fold change [12],log2 fold change [13],log2 fold change [14],log2 fold change [15],log2 fold change [16],log2 fold change [17],log2 fold change [18],log2 fold change [19],log2 fold change [20]
CHMP1B (UniProt Q7LBR1),inactive: -0.034,inactive: -0.047,inactive: -0.005,inactive: -0.086,inactive: -0.034,inactive: 0.009,inactive: -0.005,inactive: 0.025,inactive: -0.033,inactive: 0.062,inactive: 0.011,inactive: -0.083,inactive: -0.022,inactive: 0.007,inactive: 0.038,inactive: -0.051,inactive: -0.023,inactive: -0.005,inactive: 0.013,inactive: -0.111
CENPS (UniProt Q8N2Z9),inactive: -0.064,inactive: 0.007,inactive: 0.041,inactive: -0.025,inactive: -0.378,inactive: 0.098,inactive: -0.016,inactive: 0.104,inactive: 0.031,inactive: -0.038,inactive: 0.047,inactive: 0.061,inactive: 0.024,inactive: 0.056,inactive: 0.1,inactive: -0.008,inactive: 0.028,inactive: 0.012,inactive: -0.11,
CDC73 (UniProt Q6P1J9),inactive: 0.127,inactive: 0.233,inactive: 0.235,inactive: 0.074,inactive: 0.028,inactive: -0.023,inactive: 0.069,inactive: -0.137,inactive: 0.035,inactive: 0.339,inactive: 0.136,inactive: 0.183,inactive: -0.06,inactive: -0.093,inactive: -0.012,inactive: 0.131,inactive: -0.02,inactive: -0.011,inactive: -0.002,inactive: -0.074
CHCHD6 (UniProt Q9BRQ6),inactive: -0.024,inactive: -0.1,inactive: -0.171,inactive: -0.022,inactive: 0.138,inactive: 0.09,inactive: -0.078,inactive: -0.028,inactive: -0.162,inactive: 0.031,inactive: -0.049,inactive: 0.042,inactive: -0.041,inactive: 0,inactive: 0.108,inactive: 0,inactive: -0.199,inactive: -0.005,inactive: 0.096,inactive: -0.01
CHKB (UniProt Q9Y259),inactive: 0.129,inactive: 0.116,inactive: -0.04,inactive: 0.037,inactive: -0.072,inactive: 0.022,inactive: -0.03,inactive: 0.066,inactive: -0.007,inactive: 0.082,inactive: -0.018,inactive: 0.056,inactive: 0.083,inactive: 0.016,inactive: 0.097,inactive: -0.113,inactive: -0.1,inactive: 0,inactive: 0.037,inactive: 0.049
CHML (UniProt P26374),inactive: -0.017,inactive: -0.012,inactive: 0.031,inactive: -0.085,inactive: -0.019,inactive: 0.059,inactive: 0.006,inactive: 0.01,inactive: 0.008,inactive: 0.04,inactive: 0.043,inactive: 0.063,inactive: 0.058,inactive: -0.073,inactive: 0.062,inactive: -0.057,inactive: -0.016,inactive: -0.003,inactive: -0.046,inactive: 0.142
CEP192 (UniProt Q8TEP8),inactive: -0.281,inactive: 0.124,inactive: -0.119,inactive: -0.007,inactive: 0.366,inactive: 0.068,inactive: 0,inactive: 0.089,inactive: -0.073,inactive: 0.104,inactive: 0.055,inactive: 0.09,inactive: -0.038,inactive: 0.216,inactive: 0.123,inactive: 0.016,inactive: -0.143,inactive: -0.043,inactive: -0.092,
CDK13 (UniProt Q14004),inactive: -0.323,inactive: 0.169,inactive: 0.029,inactive: 0.215,inactive: -0.141,inactive: -0.197,inactive: 0.001,inactive: 0.037,inactive: 0.054,inactive: -0.048,inactive: -0.075,inactive: -0.124,inactive: -0.036,inactive: 0.095,,active: -0.414,,inactive: 0.141,inactive: -0.006,inactive: 0.063
CDK9 isoform 2 (UniProt P50750),inactive: -0.103,inactive: 0.154,inactive: 0.015,inactive: 0.114,inactive: -0.093,inactive: -0.182,inactive: -0.031,inactive: -0.067,inactive: -0.055,inactive: 0.014,inactive: -0.017,inactive: -0.103,inactive: -0.075,inactive: 0.189,,inactive: -0.054,,inactive: 0.03,inactive: 0.066,inactive: -0.013
CDC42EP1 (UniProt Q00587),inactive: -0.139,inactive: -0.07,inactive: 0.014,inactive: 0,inactive: 0,active: -0.492,inactive: 0.087,inactive: -0.057,inactive: -0.015,inactive: -0.143,inactive: -0.006,active: -0.566,inactive: 0.019,inactive: -0.041,,active: -0.524,,inactive: 0.073,inactive: 0.076,inactive: -0.327
CDK5RAP1 (UniProt Q96SZ6),active: -0.395,inactive: -0.049,inactive: 0.066,inactive: -0.076,inactive: -0.057,inactive: 0.131,inactive: -0.074,inactive: 0.055,inactive: -0.034,inactive: 0.075,inactive: 0.005,inactive: 0.041,inactive: 0.033,inactive: 0.031,,inactive: 0.033,,inactive: -0.025,inactive: 0.05,inactive: 0.048
CDKN2C (UniProt P42773),inactive: -0.1,inactive: -0.006,inactive: 0.04,inactive: -0.084,inactive: -0.045,inactive: -0.1,inactive: 0.021,inactive: 0.046,inactive: -0.083,inactive: 0.063,inactive: 0.062,inactive: 0.12,,inactive: -0.02,inactive: 0.215,inactive: 0.01,inactive: -0.03,inactive: 0.291,inactive: 0.032,inactive: 0.274
CHCHD4 isoform 2 (UniProt Q8N4Q1),inactive: 0,inactive: -0.059,inactive: 0.032,inactive: -0.043,inactive: -0.099,inactive: -0.285,inactive: 0.011,inactive: 0.102,inactive: 0.341,inactive: -0.016,inactive: -0.041,inactive: 0.017,inactive: 0.156,inactive: -0.272,,inactive: -0.079,,inactive: 0.022,inactive: 0.069,inactive: -0.074
CDK6 (UniProt Q00534),inactive: -0.012,inactive: 0.037,inactive: 0.021,inactive: -0.06,inactive: -0.051,inactive: 0.036,inactive: 0,inactive: -0.012,inactive: -0.019,inactive: 0.015,inactive: 0.062,inactive: -0.033,inactive: -0.042,inactive: -0.004,,inactive: -0.009,,inactive: -0.012,inactive: 0.018,inactive: 0.024
CETN2 (UniProt P41208),inactive: -0.114,inactive: 0.225,inactive: -0.067,inactive: 0.042,inactive: -0.112,inactive: 0.141,inactive: 0.019,inactive: 0.028,inactive: -0.207,inactive: 0.028,inactive: 0.011,inactive: 0.103,inactive: 0.066,inactive: 0.003,,inactive: 0.041,,inactive: -0.135,inactive: 0.017,inactive: 0.084
CHCHD1 (UniProt Q96BP2),inactive: 0.037,inactive: -0.017,inactive: -0.001,inactive: 0.082,inactive: -0.077,inactive: -0.198,inactive: -0.042,inactive: 0.161,inactive: -0.055,inactive: -0.193,inactive: -0.115,active: -0.54,inactive: -0.203,inactive: -0.067,,inactive: -0.085,,inactive: 0.036,inactive: -0.087,inactive: 0.06

# A section taken from the entries so far:
Target,log2 fold change [1],log2 fold change [2],log2 fold change [3],log2 fold change [4],log2 fold change [5],log2 fold change [6],log2 fold change [7],log2 fold change [8],log2 fold change [9],log2 fold change [10],log2 fold change [11],log2 fold change [12],log2 fold change [13],log2 fold change [14],log2 fold change [15],log2 fold change [16],log2 fold change [17],log2 fold change [18],log2 fold change [19],log2 fold change [20]
CDK9 isoform 2 (UniProt P50750),inactive: -0.103,inactive: 0.154,inactive: 0.015,inactive: 0.114,inactive: -0.093,inactive: -0.182,inactive: -0.031,inactive: -0.067,inactive: -0.055,inactive: 0.014,inactive: -0.017,inactive: -0.103,inactive: -0.075,inactive: 0.189,,inactive: -0.054,,inactive: 0.03,inactive: 0.066,inactive: -0.013
CDC42EP1 (UniProt Q00587),inactive: -0.139,inactive: -0.07,inactive: 0.014,inactive: 0,inactive: 0,active: -0.492,inactive: 0.087,inactive: -0.057,inactive: -0.015,inactive: -0.143,inactive: -0.006,active: -0.566,inactive: 0.019,inactive: -0.041,,active: -0.524,,inactive: 0.073,inactive: 0.076,inactive: -0.327
